The supplement of paper PMC6411743
± gives the standard deviation of the averaged measurements. The list shows a part of the results.

The chains behind the UniProt entries cited, without tags or fusion partners. Where a name states a change or a piece, a line headed by the entry shows the natural chain unless it says otherwise.
UniProt P57081: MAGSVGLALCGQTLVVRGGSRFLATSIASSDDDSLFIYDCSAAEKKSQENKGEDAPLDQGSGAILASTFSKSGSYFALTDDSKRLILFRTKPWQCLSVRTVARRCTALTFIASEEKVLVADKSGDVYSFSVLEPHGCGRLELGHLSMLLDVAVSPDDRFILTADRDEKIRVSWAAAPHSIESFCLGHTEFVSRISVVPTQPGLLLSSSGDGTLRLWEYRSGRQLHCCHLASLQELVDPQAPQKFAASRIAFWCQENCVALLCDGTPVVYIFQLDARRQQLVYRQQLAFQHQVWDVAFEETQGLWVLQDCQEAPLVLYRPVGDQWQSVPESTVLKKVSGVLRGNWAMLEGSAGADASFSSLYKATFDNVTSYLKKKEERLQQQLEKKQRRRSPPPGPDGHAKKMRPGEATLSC
UniProt P54577: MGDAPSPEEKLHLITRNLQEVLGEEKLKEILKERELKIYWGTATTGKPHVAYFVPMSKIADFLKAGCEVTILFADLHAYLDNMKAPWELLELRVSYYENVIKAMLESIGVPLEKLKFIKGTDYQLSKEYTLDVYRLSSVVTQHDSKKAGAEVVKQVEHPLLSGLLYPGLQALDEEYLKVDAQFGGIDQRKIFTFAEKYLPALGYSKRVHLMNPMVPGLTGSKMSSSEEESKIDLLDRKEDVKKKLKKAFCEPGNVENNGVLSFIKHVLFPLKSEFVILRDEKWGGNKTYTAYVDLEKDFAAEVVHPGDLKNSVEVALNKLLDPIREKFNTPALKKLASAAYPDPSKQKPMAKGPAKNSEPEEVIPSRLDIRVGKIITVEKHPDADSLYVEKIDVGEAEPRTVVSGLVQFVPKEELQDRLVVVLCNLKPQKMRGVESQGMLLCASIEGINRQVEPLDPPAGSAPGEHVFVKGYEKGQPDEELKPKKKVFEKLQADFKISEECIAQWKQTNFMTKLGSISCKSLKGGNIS
UniProt P50583: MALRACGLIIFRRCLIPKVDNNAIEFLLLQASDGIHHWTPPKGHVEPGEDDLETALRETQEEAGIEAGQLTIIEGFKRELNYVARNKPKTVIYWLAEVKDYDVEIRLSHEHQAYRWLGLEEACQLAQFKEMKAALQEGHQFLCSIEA
UniProt P53611: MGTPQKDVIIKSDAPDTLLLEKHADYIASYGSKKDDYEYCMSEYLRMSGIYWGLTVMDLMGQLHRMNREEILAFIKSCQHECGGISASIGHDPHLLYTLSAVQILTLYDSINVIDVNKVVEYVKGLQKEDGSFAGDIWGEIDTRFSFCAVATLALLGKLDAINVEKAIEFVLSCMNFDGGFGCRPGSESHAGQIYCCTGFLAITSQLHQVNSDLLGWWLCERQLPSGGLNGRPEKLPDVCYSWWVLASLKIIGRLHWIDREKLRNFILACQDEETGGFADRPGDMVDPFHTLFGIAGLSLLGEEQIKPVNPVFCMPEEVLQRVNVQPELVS
UniProt P61966: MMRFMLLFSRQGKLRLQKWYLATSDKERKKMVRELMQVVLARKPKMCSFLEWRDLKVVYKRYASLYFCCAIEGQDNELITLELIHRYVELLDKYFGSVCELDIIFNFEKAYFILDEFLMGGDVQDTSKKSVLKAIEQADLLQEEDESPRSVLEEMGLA
UniProt P62316, whole entry: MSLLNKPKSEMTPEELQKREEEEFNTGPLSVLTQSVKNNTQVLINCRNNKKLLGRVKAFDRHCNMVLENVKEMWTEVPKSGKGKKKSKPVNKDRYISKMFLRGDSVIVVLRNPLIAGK
UniProt P51116, whole entry: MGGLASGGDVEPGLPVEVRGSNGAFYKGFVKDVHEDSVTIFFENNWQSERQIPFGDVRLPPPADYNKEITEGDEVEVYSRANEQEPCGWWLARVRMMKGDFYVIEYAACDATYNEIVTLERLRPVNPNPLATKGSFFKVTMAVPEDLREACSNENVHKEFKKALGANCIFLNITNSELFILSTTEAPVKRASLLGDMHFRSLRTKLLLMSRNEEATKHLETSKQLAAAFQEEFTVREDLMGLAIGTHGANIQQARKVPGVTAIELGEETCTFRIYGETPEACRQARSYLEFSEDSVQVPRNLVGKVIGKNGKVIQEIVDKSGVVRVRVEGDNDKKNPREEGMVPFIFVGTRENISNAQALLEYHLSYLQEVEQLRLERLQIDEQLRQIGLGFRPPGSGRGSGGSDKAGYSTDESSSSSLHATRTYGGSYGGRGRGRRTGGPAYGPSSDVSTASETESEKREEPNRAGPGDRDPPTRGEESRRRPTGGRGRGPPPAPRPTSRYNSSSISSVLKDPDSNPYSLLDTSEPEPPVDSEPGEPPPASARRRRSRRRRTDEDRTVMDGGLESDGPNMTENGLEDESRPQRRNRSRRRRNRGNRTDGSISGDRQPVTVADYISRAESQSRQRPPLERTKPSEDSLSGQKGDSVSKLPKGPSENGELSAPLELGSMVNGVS
UniProt P55160: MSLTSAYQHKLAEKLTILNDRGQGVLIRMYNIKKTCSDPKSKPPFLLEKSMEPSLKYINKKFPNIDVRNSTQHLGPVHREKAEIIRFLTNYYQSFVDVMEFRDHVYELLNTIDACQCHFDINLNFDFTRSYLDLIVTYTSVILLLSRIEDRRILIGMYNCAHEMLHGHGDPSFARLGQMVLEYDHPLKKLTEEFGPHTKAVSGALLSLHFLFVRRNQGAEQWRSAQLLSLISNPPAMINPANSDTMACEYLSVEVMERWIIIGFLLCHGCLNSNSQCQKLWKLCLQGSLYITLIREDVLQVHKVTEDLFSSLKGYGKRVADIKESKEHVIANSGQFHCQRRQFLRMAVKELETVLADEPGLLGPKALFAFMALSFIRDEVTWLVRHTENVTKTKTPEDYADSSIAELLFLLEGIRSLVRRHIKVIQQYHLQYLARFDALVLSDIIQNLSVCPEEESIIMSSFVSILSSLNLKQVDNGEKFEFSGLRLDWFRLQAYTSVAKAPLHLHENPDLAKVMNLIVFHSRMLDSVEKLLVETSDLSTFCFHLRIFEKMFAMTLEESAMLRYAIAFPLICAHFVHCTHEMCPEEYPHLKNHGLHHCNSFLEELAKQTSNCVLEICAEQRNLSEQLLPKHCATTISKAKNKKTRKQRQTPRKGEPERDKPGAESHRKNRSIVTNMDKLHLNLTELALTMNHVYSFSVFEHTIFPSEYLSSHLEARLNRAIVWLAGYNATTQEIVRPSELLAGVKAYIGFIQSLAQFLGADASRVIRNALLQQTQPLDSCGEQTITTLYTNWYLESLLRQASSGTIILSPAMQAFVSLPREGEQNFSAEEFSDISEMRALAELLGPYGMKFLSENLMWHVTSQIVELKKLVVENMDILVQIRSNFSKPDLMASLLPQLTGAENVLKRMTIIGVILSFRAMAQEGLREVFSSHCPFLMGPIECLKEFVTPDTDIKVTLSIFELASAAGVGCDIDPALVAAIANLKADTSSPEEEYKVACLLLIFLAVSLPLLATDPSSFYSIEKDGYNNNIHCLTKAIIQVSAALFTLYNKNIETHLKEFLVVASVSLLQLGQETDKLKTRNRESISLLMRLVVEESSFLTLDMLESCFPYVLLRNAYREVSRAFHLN

Compound: Nc1nc2c(ncn2[C@@H]2O[C@H](COP(=O)(O)OP(=O)(O)OP(=O)(O)O)[C@@H](O)[C@H]2O)c(=O)[nH]1 [guanosine triphosphate]
Assay: NP40-soluble protein abundance relative to vehicle (solubility fold change) (ratio); higher = more soluble protein in presence of GTP
Summary of the method: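 Data come from three independent experiments in which Dounce-homogenised Jurkat crude lysate was treated at eight concentrations from 0.1 to 10 mM. Treatment ran 10 min at room temperature and then 3 min at 37 °C, after which 0.8% NP40 and benzonase were added for 60 min at 4 °C before ultracentrifugation. The supernatant underwent TMT labelling and LC-MS/MS, and vsn-normalised intensities were expressed as fold change against the detergent-processed vehicle in each replicate.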

Target	NP40-soluble protein abundance (concentration: 0.1mM)	NP40-soluble protein abundance (concentration: 0.5mM)	NP40-soluble protein abundance (concentration: 1mM)	NP40-soluble protein abundance (concentration: 2mM)	NP40-soluble protein abundance (concentration: 4mM)	NP40-soluble protein abundance (concentration: 6mM)	NP40-soluble protein abundance (concentration: 8mM)	NP40-soluble protein abundance (concentration: 10mM)
UniProt P57081 and related entries	0.989 ± 0.038	1.05 ± 0.053	1 ± 0.037	1.04 ± 0.076	0.986 ± 0.038	0.994 ± 0.1	0.974 ± 0.091	0.965 ± 0.059
UniProt P61247 and related entries	1 ± 0.064	0.99 ± 0.07	1.05 ± 0.17	0.975 ± 0.2	0.935 ± 0.27	0.909 ± 0.27	0.831 ± 0.25	0.905 ± 0.3
UniProt P78410-2|P78410 and related entries	0.953 ± 0.073	0.929 ± 0.1	0.937 ± 0.058	0.916 ± 0.062	0.888 ± 0.019	0.884 ± 0.032	0.915 ± 0.11	0.843 ± 0.051
YARS (UniProt P54577)	0.952 ± 0.037	0.969 ± 0.029	0.92 ± 0.042	0.878 ± 0.048	0.864 ± 0.061	0.874 ± 0.048	0.872 ± 0.043	0.849 ± 0.066
NUDT2 (UniProt P50583)	0.93 ± 0.17	0.902 ± 0.14	0.884 ± 0.15	0.877 ± 0.15	1.8 ± 0.49	1.24 ± 0.23	1.48 ± 0.34	1.16 ± 0.26
RABGGTB (UniProt P53611)	1.02 ± 0.058	0.994 ± 0.035	0.911 ± 0.018	0.865 ± 0.023	0.838 ± 0.039	0.89 ± 0.019	0.868 ± 0.06	0.822 ± 0.078
UniProt P61218 and related entries	1.04 ± 0.059	1.08 ± 0.035	1.18 ± 0.046	1.16 ± 0.021	1.22 ± 0.047	1.21 ± 0.071	1.18 ± 0.13	1.31 ± 0.073
UniProt P61966	1.06 ± 0.025	1.103 ± 0.011	1.08 ± 0.11	1.09 ± 0.032	1.09 ± 0.086	1.06 ± 0.094	1.09 ± 0.04	1.07 ± 0.028
UniProt P61964	0.981 ± 0.031	1.05 ± 0.039	1.01 ± 0.016	1.07 ± 0.06	1.1 ± 0.083	1.13 ± 0.085	1.11 ± 0.076	1.11 ± 0.058
UniProt P62316 and related entries	0.884 ± 0.064	0.91 ± 0.039	1.1 ± 0.12	1.17 ± 0.1	1.2 ± 0.15	1.31 ± 0.14	1.23 ± 0.089	1.45 ± 0.22
UniProt P62241 and related entries	0.942 ± 0.085	1.05 ± 0.12	1.08 ± 0.26	1.01 ± 0.29	0.893 ± 0.35	0.836 ± 0.34	0.718 ± 0.28	0.765 ± 0.33
FXR2 (UniProt P51116)	1.08 ± 0.054	1.13 ± 0.081	1.27 ± 0.064	1.51 ± 0.14	1.8 ± 0.22	1.97 ± 0.25	2.13 ± 0.29	2.23 ± 0.35
UniProt P62280	0.928 ± 0.011	1.01 ± 0.065	0.997 ± 0.16	0.931 ± 0.19	0.848 ± 0.25	0.82 ± 0.24	0.716 ± 0.2	0.767 ± 0.26
UniProt P63220 and related entries	0.881 ± 0.12	0.86 ± 0.14	1.05 ± 0.19	0.945 ± 0.17	0.848 ± 0.23	0.824 ± 0.22	0.688 ± 0.23	0.832 ± 0.29
NCKAP1L (UniProt P55160)	1.06 ± 0.031	1.1 ± 0.076	0.996 ± 0.067	1.03 ± 0.1	0.995 ± 0.082	0.991 ± 0.083	0.957 ± 0.044	0.913 ± 0.076

Nothing new here: an excerpt of the list.
Target	NP40-soluble protein abundance (concentration: 0.1mM)	NP40-soluble protein abundance (concentration: 0.5mM)	NP40-soluble protein abundance (concentration: 1mM)	NP40-soluble protein abundance (concentration: 2mM)	NP40-soluble protein abundance (concentration: 4mM)	NP40-soluble protein abundance (concentration: 6mM)	NP40-soluble protein abundance (concentration: 8mM)	NP40-soluble protein abundance (concentration: 10mM)
YARS (UniProt P54577)	0.952 ± 0.037	0.969 ± 0.029	0.92 ± 0.042	0.878 ± 0.048	0.864 ± 0.061	0.874 ± 0.048	0.872 ± 0.043	0.849 ± 0.066
NUDT2 (UniProt P50583)	0.93 ± 0.17	0.902 ± 0.14	0.884 ± 0.15	0.877 ± 0.15	1.8 ± 0.49	1.24 ± 0.23	1.48 ± 0.34	1.16 ± 0.26
